Here are results for one molecule from article PMC8094600.

The chains behind the UniProt entries cited, without tags or fusion partners. Where a name states a change or a piece, a line headed by the entry shows the natural chain unless it says otherwise.
UniProt P62330: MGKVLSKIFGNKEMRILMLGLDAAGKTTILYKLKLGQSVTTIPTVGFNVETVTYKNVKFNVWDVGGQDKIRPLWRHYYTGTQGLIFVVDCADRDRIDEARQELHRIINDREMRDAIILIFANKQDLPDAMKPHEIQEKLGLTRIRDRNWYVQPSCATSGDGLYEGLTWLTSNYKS

In assay [1] the target is constitutively active (Q67L, CA) Arf6 fused to GST (UniProt P62330). Briefly: pull-down; recombinant GST-Arf6 (Q67L or T44N) as bait with wild type HCT116 cell lysates; Western blot and CBB stained gel; GST alone as control; only the target purified.
For assay [2], the target named is dominant negative (T44N, DN) Arf6 fused to GST (UniProt P62330). Described as above.

These are yes or no findings as the source states them, for the method shown. Binding seen in cells or lysates may run through a third protein. Some binding calls cover weakened binding; strength is not graded here.

B1: Pals1 (Protein associated with Lin-7 One, encoded by Membrane Protein Palmitoylated 5, MPP5) (protein, UniProt Q8N3R9 1-675)
chain: MTTSHMNGHVTEESDSEVKNVDLASPEEHQKHREMAVDCPGDLGTRMMPIRRSAQLERIRQQQEDMRRRREEEGKKQELDLNSSMRLKKLAQIPPKTGIDNPMFDTEEGIVLESPHYAVKILEIEDLFSSLKHIQHTLVDSQSQEDISLLLQLVQNKDFQNAFKIHNAITVHMNKASPPFPLISNAQDLAQEVQTVLKPVHHKEGQELTALLNTPHIQALLLAHDKVAEQEMQLEPITDERVYESIGQYGGETVKIVRIEKARDIPLGATVRNEMDSVIISRIVKGGAAEKSGLLHEGDEVLEINGIEIRGKDVNEVFDLLSDMHGTLTFVLIPSQQIKPPPAKETVIHVKAHFDYDPSDDPYVPCRELGLSFQKGDILHVISQEDPNWWQAYREGDEDNQPLAGLVPGKSFQQQREAMKQTIEEDKEPEKSGKLWCAKKNKKKRKKVLYNANKNDDYDNEEILTYEEMSLYHQPANRKRPIILIGPQNCGQNELRQRLMNKEKDRFASAVPHTTRSRRDQEVAGRDYHFVSRQAFEADIAAGKFIEHGEFEKNLYGTSIDSVRQVINSGKICLLSLRTQSLKTLRNSDLKPYIIFIAPPSQERLRALLAKEGKNPKPEELREIIEKTREMEQNNGHYFDTAIVNSDLDKAYQELLRLINKLDTEPQWVPSTWLR
On to B1, for which the binding result in assay [1] and in assay [2] was “binds” each time.
